# Results from one PubChem assay

Source: PubChem BioAssay AID1224904 (Broad Institute, 2016).

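Control-channel Italica luciferase signal in doxycycline-induced 293T-iDUX4 cells, given as percent activity after a 24-hour treatment. The test concentration is not given here. Percent change in the Italica control signal; more negative values mean stronger inhibition, which points to nonspecific, tet-on or cytotoxic effects.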

Values are in %. Common to all entries: measured here: Italica tet-on control reporter. Part of the compounds only, not a random draw; the main read-out is not listed here.

Compound	activity change (%)
C[C@H]1CN([C@@H](C)CO)C(=O)c2ccccc2-c2ccccc2CO[C@H]1CN(C)Cc1cccc(C(F)(F)F)c1	-51.01
O=C(Nc1ccc2c(c1)OCO2)N1C[C@@H]2N[C@H](C1)C2c1ccc(C=Cc2ccccc2)cc1 (some centres undefined)	-39.69
O=C(C[C@@H]1CC[C@@H]2[C@H](COC[C@H](O)CN2CC2CCCCC2)O1)NCc1ccc(F)cc1	-9.791
CC(C)CC#Cc1ccc([C@@H]2[C@@H](CO)N3C(=O)CN(C(=O)c4ccc5c(c4)OCO5)C[C@@H]23)cc1	-7.485
COc1ccc(S(=O)(=O)N2C[C@H](O)COC[C@H]3O[C@@H](CC(=O)NCc4ccc(Cl)c(Cl)c4)CC[C@@H]32)cc1	-21.08
COc1ccc2c3c([nH]c2c1)[C@H](CO)N(Cc1ccccc1)CC31CN(CC2CC2)C1	-7.445
Cc1ccccc1S(=O)(=O)N1CC[C@@H]2[C@H](CO)Nc3ccc(-c4cccc(F)c4)cc3[C@@H]21	-19.02
CN1c2ccc(-c3cccc(F)c3)cc2[C@H]2[C@H](CCN2C(=O)c2cccc(F)c2)[C@@H]1CO	-6.433
COc1ccc2c3c([nH]c2c1)[C@H](CO)N(Cc1cccc(F)c1)CC31CN(CC2CC2)C1	-16.92
C[C@@H]1CN([C@H](C)CO)C(=O)c2c(c3ccccc3n2C)-c2ccccc2CO[C@@H]1CN(C)Cc1ccc(-c2ccccc2)cc1	-5.526
COc1ccccc1NC(=O)N(C)C[C@@H]1OCc2ccccc2-c2c(n(C)c3ccccc23)C(=O)N([C@H](C)CO)C[C@@H]1C	-44.51
Cc1ccc(S(=O)(=O)N2C[C@@H]3N[C@H](C2)C3c2ccc(/C=C/c3ccccc3)cc2)cc1 (some centres undefined)	-89.16
O=C(Cc1ccccc1)N1CC[C@@H]2[C@H](CO)Nc3ccc(-c4ccccc4)cc3[C@@H]21	-28.41
C[C@@H](NC(=O)C[C@H]1C[C@H]2c3cc(NS(=O)(=O)c4ccc(F)cc4)ccc3O[C@H]2[C@H](CO)O1)c1ccccc1	-9.13
CCCNC(=O)N1CC2(CN(CC3CCCCC3)C2)c2c(n(C)c3cc(OC)ccc23)[C@H]1CO	-5.071
OC[C@@H]1[C@H](c2ccc(-c3ccccc3F)cc2)[C@H]2CN(Cc3ccncc3)CCCCN12	-5.589
COc1ccc2c3c(n(C)c2c1)[C@H](CO)N(CC1CCCC1)CC31CN(C(=O)Nc2ccccc2)C1	-2.176
COc1ccccc1S(=O)(=O)N(C)C[C@@H]1Oc2ncc(-c3ccc(C)cc3)cc2C(=O)N([C@@H](C)CO)C[C@H]1C	-30.63
COc1ccc2c3c([nH]c2c1)[C@@H](CO)N(Cc1ccccc1)CC31CN(CC2CC2)C1	-8.516
COc1cccc(-c2ccc3c(c2)[C@@H]2[C@@H](CCN2S(=O)(=O)c2ccccc2F)[C@H](CO)N3C)c1	-43.32
O=S(=O)(c1ccccc1)N1CC2(C1)[C@@H](c1ccccc1)[C@@H](CO)N2CCC(F)(F)F	-8.329
COc1cccc(CN2[C@@H](CO)[C@@H](c3ccccc3)C23CN(C(=O)C2CCCCC2)C3)c1	-11.45
COc1ccccc1NC(=O)N1C[C@@H](O)COC[C@@H]2O[C@H](CC(=O)N3CCC(Cc4ccccc4)CC3)CC[C@H]21	-15.59
C[C@@H]1CN([C@H](C)CO)C(=O)CCCn2nncc2CO[C@H]1CN(C)Cc1ccc(-c2ccccc2)cc1	-15.36
O=C(N[C@@H]1CC[C@H](CCn2cc(-c3ccccc3)nn2)O[C@H]1CO)c1ccccc1F	-35.1
CCCN1[C@H](C(=O)NCC)[C@@H](CO)[C@@H]2Cn3c(ccc(/C=C/c4ccccc4)c3=O)[C@@H]21	-4.906
CO[C@H]1CN(C)C(=O)c2cc(NS(=O)(=O)c3ccc(Oc4ccccc4)cc3)ccc2OC[C@H](C)NC[C@@H]1C	-8.17
O=C(C[C@H]1CC[C@@H]2[C@H](COC[C@H](O)CN2S(=O)(=O)c2ccc(F)cc2)O1)N[C@@H]1CCN(Cc2ccccc2)C1	-4.592
COc1ccccc1S(=O)(=O)N1CC[C@@H]2[C@H](CO)Nc3ccc(-c4ccc(C#N)cc4)cc3[C@@H]21	-24.45
COc1ccc2c3c(n(C)c2c1)[C@@H](CO)N(C(=O)Nc1ccc(F)cc1)CC31CCN(C(=O)c2ccccc2F)CC1	-39.04
COc1cccc(-c2ccc3c(c2)[C@H]2[C@H](CCN2S(=O)(=O)c2cccc(OC)c2)[C@@H](CO)N3)c1	-35.72
COc1ccccc1NC(=O)N(C)C[C@@H]1OCc2ccccc2-c2c(n(C)c3ccccc23)C(=O)N([C@@H](C)CO)C[C@@H]1C	-2.518
O=C1CNC[C@H]2[C@@H](c3ccc(C#Cc4cccnc4)cc3)[C@@H](CO)N12	9.175

For reference, 3 entries once more:

| Compound | activity change (%) |
|---|---|
| `COc1ccccc1S(=O)(=O)N(C)C[C@@H]1Oc2ncc(-c3ccc(C)cc3)cc2C(=O)N([C@@H](C)CO)C[C@H]1C` | -30.63 |
| `COc1cccc(-c2ccc3c(c2)[C@H]2[C@H](CCN2S(=O)(=O)c2cccc(OC)c2)[C@@H](CO)N3)c1` | -35.72 |
| `COc1ccccc1NC(=O)N(C)C[C@@H]1OCc2ccccc2-c2c(n(C)c3ccccc23)C(=O)N([C@@H](C)CO)C[C@@H]1C` | -2.518 |